Results published in article PMC12551952.
These are yes or no findings as the source states them, for the method shown. In cells and extracts the contact can be indirect. Some results given as binding are weak or reduced against the parent protein; the word gives no strength. Tags and fused reporters may be left off the sequences shown.

By UniProt entry, the sequences of proteins in these tests, tags left out.
UniProt Q9D4K7: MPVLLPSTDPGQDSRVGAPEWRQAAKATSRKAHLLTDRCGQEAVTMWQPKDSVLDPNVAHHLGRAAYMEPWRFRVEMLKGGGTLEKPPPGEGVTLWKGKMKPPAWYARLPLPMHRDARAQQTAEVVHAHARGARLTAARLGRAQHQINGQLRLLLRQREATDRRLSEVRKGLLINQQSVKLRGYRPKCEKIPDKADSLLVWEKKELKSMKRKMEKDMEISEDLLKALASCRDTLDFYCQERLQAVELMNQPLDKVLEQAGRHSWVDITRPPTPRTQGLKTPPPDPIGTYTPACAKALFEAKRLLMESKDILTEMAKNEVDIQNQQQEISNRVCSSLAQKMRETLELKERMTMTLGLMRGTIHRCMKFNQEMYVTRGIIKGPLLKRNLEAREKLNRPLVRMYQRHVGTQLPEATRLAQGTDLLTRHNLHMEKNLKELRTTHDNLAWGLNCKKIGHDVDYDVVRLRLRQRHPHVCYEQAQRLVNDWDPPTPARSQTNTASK

Biological target: FLAG-tagged WT-CCDC105 (mouse) (UniProt Q9D4K7)
Experiment: co-IP; HEK293T cells co-transfected with FLAG-, MYC- and/or HA-tagged plasmids, lysed 48 h later in Pierce IP Lysis Buffer; lysates incubated overnight with FLAG antibody at 4°C, then Protein A/G agarose for 4 h; five washes; Western blot with anti-FLAG, anti-MYC or anti-HA

binding: binds
B1: HA-tagged TEX43 (protein, UniProt Q9D9I1 1-141)
chain: MASEKDDGPALPKLDDDNQTAENTCKPAEEQPQQLRWDDIHLPRFSLKQGMIPTRYVMPWKENMKFRNVNLQQAEACGIYAGPLEDSLFWGYSERLCHGEDRKAVLKKGLPEIKITDMPLHSPLSRYQSTVISHGFRRRLI
